Test results as given in PubChem BioAssay AID1671190 (National Center for Advancing Translational Sciences (NCATS), 2021).
The whole screen tested about 580,000 compounds, of which about 6,100 (1.1%) were called active. The shares of active, inactive and inconclusive entries below differ from those in the screen. The call rests on the fitted dose curve; in most records, active means well fitted inhibition curve with a large enough effect; inconclusive means small, poorly fitted or top-dose-only effect, or another doubt; inactive means no such curve, though single readings can be large or run the other way. Potencies beside an inconclusive call are fits to weak or partial responses and may not hold up.

The chains behind the UniProt entries cited, without tags or fusion partners.
UniProt P18054, whole entry, looked up: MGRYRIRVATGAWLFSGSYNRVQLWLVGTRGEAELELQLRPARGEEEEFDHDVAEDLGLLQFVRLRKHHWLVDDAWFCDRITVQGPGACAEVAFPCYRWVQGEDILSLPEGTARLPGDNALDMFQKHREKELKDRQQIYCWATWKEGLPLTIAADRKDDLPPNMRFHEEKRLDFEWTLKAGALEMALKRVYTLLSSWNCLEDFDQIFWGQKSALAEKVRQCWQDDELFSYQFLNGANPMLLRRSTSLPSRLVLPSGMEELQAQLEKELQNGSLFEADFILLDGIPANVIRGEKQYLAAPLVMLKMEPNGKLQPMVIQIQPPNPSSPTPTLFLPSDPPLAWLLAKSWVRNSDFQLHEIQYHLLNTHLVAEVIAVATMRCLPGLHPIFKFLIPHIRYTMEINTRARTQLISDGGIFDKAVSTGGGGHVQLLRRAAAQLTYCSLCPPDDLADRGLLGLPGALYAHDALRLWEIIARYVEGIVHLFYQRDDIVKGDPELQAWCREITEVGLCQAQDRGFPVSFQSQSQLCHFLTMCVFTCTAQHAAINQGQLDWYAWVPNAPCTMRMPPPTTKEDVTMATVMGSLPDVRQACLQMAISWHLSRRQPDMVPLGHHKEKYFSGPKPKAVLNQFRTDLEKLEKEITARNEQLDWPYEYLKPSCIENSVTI

target: Polyunsaturated fatty acid lipoxygenase ALOX12 (Homo sapiens) (UniProt P18054); assay: Primary qHTS assay for inhibitors of human arachidonate 12S-lipoxygenase (ALOX12): Round 2; settings: purified 12hLO, xylenol orange hydroperoxide absorbance; activity change, negative = inhibition: at 108 µM (top of the series) unless noted
In short: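 Hydroperoxide product was detected by ferrous iron/xylenol orange as the 573 to 405 nm absorbance ratio. Arachidonic acid at 40 uM (final) was turned over for 30 min at room temperature by 150 nM human 12hLO, pH 7.0 Hepes buffer, after 15 min compound preincubation.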
On the % scale 0 is the no-effect control and ±100 the full control effect; potency means the concentration at half of the fitted maximal effect.

**Q.** Which Potency does the source give for `CCn1c(C(=O)N2CCc3ccccc3C2)cc2sccc21` here?
**A.** inconclusive: 28.2 µM [inhibitor, partial curve]

**Q.** With `Nn1c(COc2ccc(Cl)cc2)n[nH]c1=S` as the molecule, how does the Potency read?
**A.** inconclusive: 35.5 µM [inhibitor, partial curve, poor fit]

**Q.** For `Cc1nc2c(OCc3ccc(Cl)cc3)cccn2c1N(C)Cc1cccs1`, which Potency is on record?
**A.** inconclusive: 89.1 µM [inhibitor, partial curve, poor fit]

**Q.** With `COc1cccc(-n2cnc3c2NC(=O)CC3c2ccccc2)c1` (stereo not drawn) as the molecule, how does the Potency read?
**A.** inconclusive: 28.2 µM [inhibitor, single point]

**Q.** With `CCc1ccc(-c2noc(CSc3nc4cc5c(cc4c(=O)n3Cc3ccco3)OCO5)n2)cc1` as the molecule, how does the Potency read?
**A.** inconclusive: 112 µM [inhibitor, single point]

**Q.** Which Potency does the source give for `COc1ccc(-n2c(=O)c(-c3cccs3)nc3cnc(N4CCNCC4)nc32)cc1` here?
**A.** inconclusive: 89.1 µM [inhibitor, partial curve, poor fit]

**Q.** Which Potency does the source give for `COc1ccc(-c2c[n+]3c4n2CCCCC4=C(c2ccccc2)C3)cc1` here?
**A.** inconclusive: 31.6 µM [inhibitor, partial curve, poor fit]

**Q.** How did the Potency turn out when `CC(C)(C)NC(=O)/C(=C/c1ccc(-c2ccc(Br)cc2)o1)NC(=O)c1ccccc1` was run?
**A.** inconclusive: 39.8 µM [inhibitor, partial curve, poor fit]

**Q.** `CC[C@@H](C)[C@H](CNC)NC[C@@H](Cc1cccc2ccccc12)NCCc1cccc(C(F)(F)F)c1` was tested. Which Potency did it give?
**A.** inconclusive: 50.1 µM [inhibitor, partial curve, poor fit]

**Q.** `O=C(CSc1nncc(=O)[nH]1)NCc1ccccc1` was tested. Which Potency did it give?
**A.** inconclusive: 44.7 µM [inhibitor, partial curve, poor fit]

**Q.** `COc1ccc(NC(=O)c2c(C)oc3ccc(O)c(CN4CCN(Cc5ccccc5)CC4)c23)cc1Cl` was tested. Which Potency did it give?
**A.** inconclusive: 89.1 µM [inhibitor, partial curve, poor fit]

**Q.** For `COc1ccc(C(CNC(=O)c2cccc(Br)c2)N2CCCC2)cc1` (stereo not drawn), which Potency is on record?
**A.** inconclusive: 89.1 µM [inhibitor, partial curve, poor fit]

**Q.** Which “activity change, negative = inhibition” value does the source give for `CCn1c(SCC(N)=O)nc2cc(S(=O)(=O)N3CCOCC3)ccc21` here?
**A.** inactive: 2.57%

**Q.** With `O=C(Nc1ccc2c(c1)CCC2)c1ccc(Cl)nc1` as the molecule, how does the “activity change, negative = inhibition” value read?
**A.** inactive: -3.24%

**Q.** For `CCOC(=O)N(C)c1c(CC)nc2c(OCC(=O)C(C)(C)C)cccn12`, which Potency is on record?
**A.** inconclusive: 50.1 µM [inhibitor, partial curve, poor fit]

**Q.** How did the “activity change, negative = inhibition” value turn out when `O=C(NCCCN1CCCC1)NCc1ccccc1` was run?
**A.** inactive: 35.8%

**Q.** Which Potency does the source give for `CCn1c(SCc2cccc(C(F)(F)F)c2)nnc1-c1ccco1` here?
**A.** active: 50.1 µM

**Q.** `O=[N+]([O-])c1cccc(OCCCN2CCC(Cc3ccccc3)CC2)c1` was tested. Which Potency did it give?
**A.** active: 0.501 µM

**Q.** How did the “activity change, negative = inhibition” value turn out when `CSc1nc(-c2ccco2)nn1C(=O)c1ccc(C)cc1` was run?
**A.** inactive: 64.5%

**Q.** Which “activity change, negative = inhibition” value does the source give for `CCOc1cc(N2CCOCC2)c(OCC)cc1NC(=O)c1cnccn1` here?
**A.** inactive: -5.17%

**Q.** For `CSc1ncc(C(=O)N2CCN(c3cccc(Cl)c3)CC2)c(C)n1`, which Potency is on record?
**A.** inconclusive: 141 µM [inhibitor, partial curve, poor fit]

**Q.** With `Cc1cc(NC(=O)CSc2ncnc3ccccc23)ccc1Br` as the molecule, how does the Potency read?
**A.** inconclusive: 0.199 µM [inhibitor, full curve, poor fit]

**Q.** `Cc1cc(C)nc(NC(=O)c2c(F)c(F)c(F)c(C(=O)Nc3cc(C)cc(C)n3)c2F)c1` was tested. Which Potency did it give?
**A.** inconclusive: 28.2 µM [inhibitor, single point]

**Q.** `CCOC(=O)COn1c(-c2cccc(Cl)c2)nc2ccc([N+](=O)[O-])cc21` was tested. Which Potency did it give?
**A.** inconclusive: 8.91 µM [inhibitor, partial curve, poor fit]

**Q.** How did the “activity change, negative = inhibition” value turn out when `COc1cc(OC)cc(C(=O)OCc2nc3ccccc3o2)c1` was run?
**A.** inactive: 18.5%

**Q.** For `c1ccc(CCn2c(SCc3ccccc3)nnc2-c2ccncc2)cc1`, which “activity change, negative = inhibition” value is on record?
**A.** inactive: 38%

**Q.** With `CCCn1c(SCc2cc(=O)oc3cc(C)c(C(C)C)cc23)n[nH]c1=O` as the molecule, how does the “activity change, negative = inhibition” value read?
**A.** inactive: -0.225%

**Q.** For `CCC(=O)N1CCCC(C)(C(=O)Nc2ccc3scnc3c2)C1` (stereo not drawn), which “activity change, negative = inhibition” value is on record?
**A.** inactive: -5.88%

**Q.** With `O=C(COc1ccc2ccc(=O)oc2c1)Nc1ccc2c(c1)OCCO2` as the molecule, how does the Potency read?
**A.** inconclusive: 50.1 µM [inhibitor, partial curve, poor fit]

**Q.** With `O=C(NCCN1CCN(c2cccc(Cl)c2)CC1)Nc1ccccc1C(F)(F)F` as the molecule, how does the “activity change, negative = inhibition” value read?
**A.** inactive: 1.1%

**Q.** With `CC1=C(C(=O)Nc2cccc(C(F)(F)F)c2)C(c2ccc(Cl)cc2)n2ncnc2N1` (stereo not drawn) as the molecule, how does the “activity change, negative = inhibition” value read?
**A.** inactive: -7.09%

**Q.** Which “activity change, negative = inhibition” value does the source give for `O=C(OCc1ccccc1)N1CCOCC12CCN(Cc1ccc(O)cc1)CC2` here?
**A.** inactive: -1.45% [at 176 µM]

**Q.** `Cc1nc(CN2CCN(S(=O)(=O)c3c(Cl)cc(Br)cc3Cl)CC2)cs1` was tested. Which Potency did it give?
**A.** inconclusive: 56.2 µM [inhibitor, partial curve, poor fit]

**Q.** How did the Potency turn out when `C=CCNC(=S)N1CCN(c2ncc(C(F)(F)F)cc2Cl)CC1` was run?
**A.** inconclusive: 31.6 µM [inhibitor, partial curve, poor fit]

**Q.** How did the Potency turn out when `Cc1ccc(CNc2nc(-c3ccco3)nn2S(=O)(=O)c2ccc3ccccc3c2)cc1` was run?
**A.** inconclusive: 50.1 µM [inhibitor, partial curve, poor fit]

**Q.** Which Potency does the source give for `COC(=O)c1nn(-c2ccc(OC)cc2)ccc1=O` here?
**A.** inconclusive: 1.26 µM [inhibitor, partial curve, poor fit]

**Q.** Which Potency does the source give for `Cc1cc(-c2[nH]nc3c2C(c2ccc(Cl)cc2)C(C#N)=C(N)O3)c(C)s1` (stereo not drawn) here?
**A.** inconclusive: 28.2 µM [inhibitor, full curve, poor fit]

**Q.** How did the “activity change, negative = inhibition” value turn out when `O=C(N1CCC2(CC1)CC(Cc1nc(-c3cccnc3)no1)CCO2)C1(c2ccccc2)CC1` (stereo not drawn) was run?
**A.** inactive: 10.8%

**Q.** Which Potency does the source give for `CC1CC(C)CN(S(=O)(=O)c2cc3c4c(c2)CCN4C(=O)CC3)C1` (stereo not drawn) here?
**A.** inconclusive: 56.2 µM [inhibitor, partial curve, poor fit]

**Q.** `N/C(=N\OC(=O)c1ccc2c(c1)OCO2)c1cccc([N+](=O)[O-])c1` was tested. Which Potency did it give?
**A.** inconclusive: 100 µM [inhibitor, partial curve, poor fit]

**Q.** How did the Potency turn out when `O=C(Cn1c(=O)nc(-c2ccccc2)c2cc(Cl)ccc21)N1CCN(c2ccccc2F)CC1` was run?
**A.** inconclusive: 158 µM [inhibitor, partial curve, poor fit]

**Q.** `CCN1CCN(C(=S)Nc2cccc([N+](=O)[O-])c2)CC1` was tested. Which “activity change, negative = inhibition” value did it give?
**A.** inactive: 1.36%

**Q.** With `CS(=O)(=O)c1ccc2nc(NC(=O)C3CC(=O)N(c4ccccc4)C3)sc2c1` (stereo not drawn) as the molecule, how does the “activity change, negative = inhibition” value read?
**A.** inactive: 1.38%

**Q.** `O=C(Nc1nc(-c2cccs2)cs1)C1=COCCO1` was tested. Which Potency did it give?
**A.** inconclusive: 6.31 µM [inhibitor, full curve]

**Q.** With `COc1ccc(NC(=O)c2ccc(NCCCN3CCOCC3)c([N+](=O)[O-])c2)cc1` as the molecule, how does the Potency read?
**A.** inconclusive: 56.2 µM [inhibitor, partial curve, poor fit]

**Q.** With `O=C(NCC12CC3CC(CC(C3)C1)C2)c1ccc(Cl)c([N+](=O)[O-])c1` as the molecule, how does the “activity change, negative = inhibition” value read?
**A.** inactive: -4.08%

**Q.** `Cc1ccc(-c2cc3c(=O)n(CCNC(=O)Cc4ccccc4Cl)ccn3n2)cc1C` was tested. Which Potency did it give?
**A.** inconclusive: 79.4 µM [inhibitor, single point]

**Q.** `CC(C)=CCC1(CO)CCCN(Cc2[nH]c3ccc(F)cc3c2C)C1` (stereo not drawn) was tested. Which Potency did it give?
**A.** inconclusive: 39.8 µM [inhibitor, partial curve]

**Q.** `O=C(N/N=C/c1sc(N2CCOCC2)nc1-c1ccccc1)c1cccc(S(=O)(=O)N2CCCC2)c1` was tested. Which “activity change, negative = inhibition” value did it give?
**A.** inactive: -13.4%

**Q.** `CC(=O)c1ccccc1NC(=O)COC(=O)c1ccc2ccccc2n1` was tested. Which Potency did it give?
**A.** inconclusive: 39.8 µM [inhibitor, partial curve]

**Q.** Which “activity change, negative = inhibition” value does the source give for `COc1ccc(/C=N/S(=O)(=O)c2cccs2)cc1` here?
**A.** inactive: 2.28%

**Q.** With `O=C(COC(=O)Cc1c(F)cccc1Cl)NC(=O)Nc1ccccc1F` as the molecule, how does the Potency read?
**A.** inconclusive: 0.0891 µM [inhibitor, full curve, poor fit]

**Q.** How did the Potency turn out when `CC(C)C1C(=O)Nc2ccc(S(=O)(=O)NCCc3ccc(Cl)cc3)cc21` (stereo not drawn) was run?
**A.** inconclusive: 50.1 µM [inhibitor, partial curve, poor fit]

**Q.** How did the Potency turn out when `Cc1ccc(C(NC(=O)C(C)C)c2cc([N+](=O)[O-])c3cccnc3c2O)cc1` (stereo not drawn) was run?
**A.** active: 15.8 µM

**Q.** For `CCCCN(C)C(=O)C1CCN(Cc2cccnc2)CC1`, which Potency is on record?
**A.** inconclusive: 1.26 µM [inhibitor, full curve, poor fit]

**Q.** How did the “activity change, negative = inhibition” value turn out when `O=P(O)(O)C(O)(Cc1cccnc1)P(=O)(O)O` was run?
**A.** inactive: -17.1% [at 57.4 µM]

**Q.** `COc1ccc2[nH]c3c(c2c1)CCN(C)C31CCN(C(=O)COc2ccc(F)cc2)CC1` was tested. Which Potency did it give?
**A.** inconclusive: 17.8 µM [inhibitor, full curve, poor fit]

**Q.** How did the Potency turn out when `CN(C)CC#CC(O)(c1ccccc1)C1(C)CCCC1` (stereo not drawn) was run?
**A.** inconclusive: 141 µM [inhibitor, single point]

**Q.** `CSc1sc(C(=O)N2CCCCC2)c(-c2cccs2)c1C#N` was tested. Which Potency did it give?
**A.** inconclusive: 100 µM [inhibitor, single point]

**Q.** How did the “activity change, negative = inhibition” value turn out when `Cc1cccc(-c2noc(CNC(=O)c3ccoc3C)n2)c1` was run?
**A.** inactive: -7.43%

**Q.** For `Cc1cc(N2CCN(C)CC2)nc2ccc(NC(=O)Nc3cccc(Cl)c3)cc12`, which Potency is on record?
**A.** inconclusive: 63.1 µM [inhibitor, partial curve, poor fit]

**Q.** `CC1=CC2C(=O)c3cccc(O)c3C(=O)C2C(O)=C1` (stereo not drawn) was tested. Which Potency did it give?
**A.** inconclusive: 35.5 µM [inhibitor, partial curve, poor fit]

**Q.** For `CN(CC(=O)Nc1ccccc1Br)C(=O)CN1CCN(Cc2cccc(Cl)c2)CC1`, which “activity change, negative = inhibition” value is on record?
**A.** inactive: -11.4%

**Q.** For `Cc1ccc2c(Cn3nnc(-c4ccccc4C)n3)cc(=O)oc2c1`, which “activity change, negative = inhibition” value is on record?
**A.** inactive: 4.65%

**Q.** `Cn1c(=O)c2cn(-c3ccccc3)cc2n(C)c1=O` was tested. Which Potency did it give?
**A.** inconclusive: 22.4 µM [inhibitor, partial curve, poor fit]

**Q.** `CCn1c(CNC(C)c2ccc(Cl)c(Cl)c2)nc2cc(S(=O)(=O)N3CCOCC3)ccc21` (stereo not drawn) was tested. Which “activity change, negative = inhibition” value did it give?
**A.** inactive: 47%

**Q.** With `O=C(CCCCCNC(=O)c1ccccc1Br)N=Nc1c(O)[nH]c2ccccc12` as the molecule, how does the “activity change, negative = inhibition” value read?
**A.** inactive: -15.3%

**Q.** With `CCn1c(CC(C)C)n[nH]c1=S` as the molecule, how does the Potency read?
**A.** inconclusive: 35.5 µM [inhibitor, partial curve, poor fit]
